Residue numbers refer to the chain shown, from its start. Construct, isoform or probe ends are uncertain for at least one entry. At least one verdict rests on a figure or table, not on a statement of the authors. Where a protein sequence is shown, tags need not be part of it.
Experiments:
ZCCHC4 F48A (human) = target: T1, ZCCHC4 F48A (human) (UniProt Q9H5U6); experiment: EMSA; conditions: 0.3 uM protein, 0.6 uM RNA; EMSA: 20 mM Tris-HCl pH 7.5, 100 mM NaCl, 5% glycerol, 1 mM DTT, 4 C, 1 h; 0.3 uM RNA with 0-1.2 uM protein unless noted; 6% TBE native gel; recombinant protein; residues 24-513; protein details: His6-SUMO removed by ULP1; label: none (SYBR Gold stain)
T1 sequence (looked up): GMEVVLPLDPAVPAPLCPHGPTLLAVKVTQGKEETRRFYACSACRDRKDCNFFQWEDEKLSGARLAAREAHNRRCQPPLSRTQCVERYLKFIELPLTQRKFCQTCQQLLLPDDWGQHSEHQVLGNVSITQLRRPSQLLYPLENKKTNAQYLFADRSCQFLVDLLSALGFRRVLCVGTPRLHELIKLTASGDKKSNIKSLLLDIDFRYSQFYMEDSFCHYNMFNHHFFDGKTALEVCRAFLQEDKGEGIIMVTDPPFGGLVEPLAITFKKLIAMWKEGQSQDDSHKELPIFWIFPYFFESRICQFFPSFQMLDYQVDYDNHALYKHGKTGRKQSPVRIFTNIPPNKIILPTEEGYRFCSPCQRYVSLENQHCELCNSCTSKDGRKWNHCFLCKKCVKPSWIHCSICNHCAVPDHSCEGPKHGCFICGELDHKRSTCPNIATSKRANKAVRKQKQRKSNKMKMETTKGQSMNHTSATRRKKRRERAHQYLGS

ZCCHC4 F61A (human) = target: T2, ZCCHC4 F61A (human) (UniProt Q9H5U6); experiment: EMSA; conditions: 0.3 uM protein, 0.6 uM RNA; EMSA: 20 mM Tris-HCl pH 7.5, 100 mM NaCl, 5% glycerol, 1 mM DTT, 4 C, 1 h; 0.3 uM RNA with 0-1.2 uM protein unless noted; 6% TBE native gel; recombinant protein; residues 24-513; protein details: His6-SUMO removed by ULP1; label: none (SYBR Gold stain)
T2 sequence (looked up): T1 sequence (looked up) with A25F, F38A

“CGGUACACCUGUCAAACGGUAACGCAGGUG [30-mer 28S rRNA]”: binds (ZCCHC4 F48A (human)); binds (ZCCHC4 F61A (human)).
